Measurements reported in patent US7208154B2, “Methods and compositions for the treatment of MHC-associated conditions” (Regents of the University of Michigan, priority 2002, dated 2007).
At least one structure is not confirmed: it was looked up by name or label, or the drawing left a doubt.

Tested on: human fibroblastoid line M1 cells
Settings: M1 cells stimulated 20 min with various concentrations before 100 μM H2O2
Description: To further determine the signaling pathways involved in DNA repair induction, the inventors used the Trevigen CometAssay™ kit (Cat. No. 4250-50-K). The CometAssay is a single-cell gel electrophoresis method that can measure a variety of types of DNA damage, and repair of damage, in individual cells. The assay is based on the alkaline lysis of labile DNA at sites of damage. The unwound, relaxed DNA is able to migrate out of the cell during electrophoresis and can be visualized by SYBR Green staining.
To quantify DNA damage, cells were collected and three parallel samples were processed (a negative control, a DNA damage control (H2O2) and a sample subjected to H2O2 following exposure to various modulators of the cAMP signaling pathway). […] Scion Image software is used to quantitate the comet tail intensity. […] Data is presented as % DNA repair (the percent decrement in tail fluorescence intensity in agonist or antagonist-treated cells, relative to the intensity recorded in cells treated with H2O2 only)±SEM. […]
To directly examine that possibility, cells were incubated overnight with synthetic peptides corresponding to the region contained within amino acids 65–79 and their ability to mount DNA repair activity in response to cAMP-elevating agents was determined. […] At the end of the preincubation, cells were collected, washed and 2CA-induced DNA repair was determined as above. […]

For C=C[C@@]1(C)CC(=O)[C@]2(O)[C@@]3(C)[C@@H](O)CCC(C)(C)[C@@H]3[C@H](O)[C@H](OC(C)=O)[C@@]2(C)O1 [FSK, forskolin, reference compound], which DNA repair triggered is on record?
Its DNA repair triggered is “triggered in all cases DNA repair”.
